# Laboratory results from US11555055B2 (The Regents of the University of California, priority 2017, dated 2023).
# Where a sequence shows no end group, the ends are not given.
# Assay: peptide synthesis
# Conditions: whole synthesis, HPLC
sequence,measurement,value
ACSWWSIHLCG,purity (crude or final not stated),˜95%
